{"source": "patent US4477458A", "about": "“Thiazolidine derivatives and their mucolytic compositions and methods” (Camillo Corvi S.p.A., priority 1981, dated 1984)", "system": "mucus of sound animals (rabbits)", "test": "Fluidizing activity - viscosity of mucus of sound animals (Contraves Rehomat microviscosimeter)", "type": "in vivo, rabbit", "conditions": "20 mg/kg i.v.", "procedure": "The pharmacological activity was measured by studying the effect on the compound (CO/1177) on:\n(b) viscosity of mucus of sound animals (rabbits) and/or of animals made bronchitic experimentally by using, for the viscosimeter measures, a Contraves Rehomat microviscosimeter at 15 automatic scanning speeds;", "note": "Where a name gives a salt, the structure may show the parent alone.", "data": [{"smiles": "O=C(O)c1ccccc1C(=O)N1CCSC1", "note": "[CO/1177, 2-(1,3-thiazolidin-3-yl)-carbonyl-benzoic acid (Na salt)]", "values": [{"measurement": "Viscosity, time -24→0 (before administration)", "setting": "speed 17.4 g/min", "value": 9.56, "unit": "cps"}, {"measurement": "Viscosity, time -24→0 (before administration)", "setting": "speed 25 g/min", "value": 10.58, "unit": "cps"}, {"measurement": "Viscosity, time -24→0 (before administration)", "setting": "speed 33.6 g/min", "value": 9.20, "unit": "cps"}, {"measurement": "Viscosity, time -24→0 (before administration)", "setting": "speed 44.3 g/min", "value": 7.00, "unit": "cps"}, {"measurement": "Viscosity, time -24→0 (before administration)", "setting": "speed 56.1 g/min", "value": 7.50, "unit": "cps"}, {"measurement": "Viscosity, time -24→0 (before administration)", "setting": "speed 77.9 g/min", "value": 5.49, "unit": "cps"}, {"measurement": "Viscosity, time -24→0 (before administration)", "setting": "speed 113.2 g/min", "value": 3.61, "unit": "cps"}, {"measurement": "Viscosity, time -24→0 (before administration)", "setting": "speed 152 g/min", "value": 3.42, "unit": "cps"}, {"measurement": "Viscosity, time -24→0 (before administration)", "setting": "speed 200 g/min", "value": 3.48, "unit": "cps"}, {"measurement": "Viscosity, time -24→0 (before administration)", "setting": "speed 266.8 g/min", "value": 3.19, "unit": "cps"}, {"measurement": "Viscosity, time -24→0 (before administration)", "setting": "speed 352 g/min", "value": 3.05, "unit": "cps"}]}]}
